{"source": "PubChem BioAssay AID1053208 (Peter MacCallum Cancer Centre, 2014)", "test": "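Find knock-downs that sensitise mouse osteosarcoma cells to doxorubicin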 (primary screen)", "cells": "mouse osteosarcoma cells, early-passage culture from an engineered mouse model of fibroblastic bone tumour", "knock-down reagent": "siRNA pool against mouse genes, 40 nM", "duration": "about 120 h (48 h before drug, then 72 h with drug)", "challenge": "doxorubicin 100 nM for 72 h, roughly 30-40% inhibitory dose", "detection": "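Viability read as ATP luminescence after 72 h of 100 nM doxorubicin or none, duplicate wells averaged, scaled to non-targeting siRNA, then expressed as robust z-scores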", "reading the numbers": "viability z-score with doxorubicin: higher = more viable cells under doxorubicin; viability z-score without drug: higher = more viable cells with knock-down alone", "call rule": "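a pool counts as active when its viability z-score with doxorubicin is -2 or below and its z-score without drug lies between -2 and 2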", "note": "The deposit covers about 17,000 reagents; below is an unselected part. 788 of them (4.7%) were called active. 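Calls rest on z-score classes alone; an extra cut-off of viability at most 70% of control was not applied to them.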 Not all columns of the deposit are shown."}
{"Gene":"Epc1 (enhancer of polycomb homolog 1)","PubChem SID":"SID152272438","combined z-score class":"low cell count with doxorubicin only","viability z-score with doxorubicin":-2.47,"viability z-score without drug":0.67,"Call":"active"}
{"Gene":"Ero1b (endoplasmic reticulum oxidoreductase 1 beta)","PubChem SID":"SID152284995","combined z-score class":"no change with or without drug","viability z-score with doxorubicin":-1.12,"viability z-score without drug":1.85,"Call":"inactive"}
{"Gene":"Trex1 (three prime repair exonuclease 1)","PubChem SID":"SID152269448","combined z-score class":"low cell count with doxorubicin only","viability z-score with doxorubicin":-2.02,"viability z-score without drug":0.51,"Call":"active"}
{"Gene":"Aoc2 (amine oxidase copper containing 2)","PubChem SID":"SID152277081","combined z-score class":"no change with or without drug","viability z-score with doxorubicin":-0.67,"viability z-score without drug":-0.84,"Call":"inactive"}
{"Gene":"Tbk1 (TANK-binding kinase 1)","PubChem SID":"SID152264333","combined z-score class":"no change with or without drug","viability z-score with doxorubicin":0.56,"viability z-score without drug":-0.84,"Call":"inactive"}
{"Gene":"Rhox3a (reproductive homeobox 3A)","PubChem SID":"SID152321317","combined z-score class":"no change with or without drug","viability z-score with doxorubicin":0,"viability z-score without drug":-0.17,"Call":"inactive"}
{"Gene":"Gpr132 (G protein-coupled receptor 132)","PubChem SID":"SID152309213","combined z-score class":"no change with or without drug","viability z-score with doxorubicin":0.22,"viability z-score without drug":-0.51,"Call":"inactive"}
{"Gene":"Krt18 (keratin 18)","PubChem SID":"SID152290050","combined z-score class":"no change with or without drug","viability z-score with doxorubicin":-0.11,"viability z-score without drug":0.34,"Call":"inactive"}
{"Gene":"Phgr1 (proline/histidine/glycine-rich 1)","PubChem SID":"SID152340792","combined z-score class":"no change with or without drug","viability z-score with doxorubicin":0.9,"viability z-score without drug":-0.17,"Call":"inactive"}
{"Gene":"Or5ae1 (olfactory receptor family 5 subfamily AE member 1)","PubChem SID":"SID152324038","combined z-score class":"no change with or without drug","viability z-score with doxorubicin":0.67,"viability z-score without drug":-1.52,"Call":"inactive"}
{"Gene":"Far1 (fatty acyl CoA reductase 1)","PubChem SID":"SID152321645","combined z-score class":"no change with or without drug","viability z-score with doxorubicin":0.22,"viability z-score without drug":0.17,"Call":"inactive"}
{"Gene":"2900005J15Rik (RIKEN cDNA 2900005J15 gene)","PubChem SID":"SID152312557","combined z-score class":"no change with or without drug","viability z-score with doxorubicin":0.9,"viability z-score without drug":0,"Call":"inactive"}
{"Gene":"Npm2 (nucleophosmin/nucleoplasmin 2)","PubChem SID":"SID152319038","combined z-score class":"no change with or without drug","viability z-score with doxorubicin":1.8,"viability z-score without drug":-0.51,"Call":"inactive"}
{"Gene":"Vip (vasoactive intestinal polypeptide)","PubChem SID":"SID152305853","combined z-score class":"no change with or without drug","viability z-score with doxorubicin":-1.46,"viability z-score without drug":0.17,"Call":"inactive"}
{"Gene":"Hnrnpll (heterogeneous nuclear ribonucleoprotein L-like)","PubChem SID":"SID152325910","combined z-score class":"no change with or without drug","viability z-score with doxorubicin":-0.9,"viability z-score without drug":1.18,"Call":"inactive"}
{"Gene":"Or52e15 (olfactory receptor family 52 subfamily E member 15)","PubChem SID":"SID152310325","combined z-score class":"no change with or without drug","viability z-score with doxorubicin":-1.12,"viability z-score without drug":0.17,"Call":"inactive"}
{"Gene":"Cenpp (centromere protein P)","PubChem SID":"SID152273862","combined z-score class":"no change with or without drug","viability z-score with doxorubicin":0.67,"viability z-score without drug":1.18,"Call":"inactive"}

Continued (3 carried over from the part before).
{"Gene":"Hnrnpll (heterogeneous nuclear ribonucleoprotein L-like)","PubChem SID":"SID152325910","combined z-score class":"no change with or without drug","viability z-score with doxorubicin":-0.9,"viability z-score without drug":1.18,"Call":"inactive"}
{"Gene":"Or52e15 (olfactory receptor family 52 subfamily E member 15)","PubChem SID":"SID152310325","combined z-score class":"no change with or without drug","viability z-score with doxorubicin":-1.12,"viability z-score without drug":0.17,"Call":"inactive"}
{"Gene":"Cenpp (centromere protein P)","PubChem SID":"SID152273862","combined z-score class":"no change with or without drug","viability z-score with doxorubicin":0.67,"viability z-score without drug":1.18,"Call":"inactive"}
{"Gene":"Tmem138 (transmembrane protein 138)","PubChem SID":"SID152276155","combined z-score class":"no change with or without drug","viability z-score with doxorubicin":0.9,"viability z-score without drug":1.18,"Call":"inactive"}
{"Gene":"Fam174a (family with sequence similarity 174, member A)","PubChem SID":"SID152304453","combined z-score class":"no change with or without drug","viability z-score with doxorubicin":-0.67,"viability z-score without drug":-0.17,"Call":"inactive"}
{"Gene":"Art2b (ADP-ribosyltransferase 2b)","PubChem SID":"SID152282773","combined z-score class":"no change with or without drug","viability z-score with doxorubicin":-0.22,"viability z-score without drug":0.34,"Call":"inactive"}
{"Gene":"Bcl2a1c (B cell leukemia/lymphoma 2 related protein A1c)","PubChem SID":"SID152324952","combined z-score class":"no change with or without drug","viability z-score with doxorubicin":1.12,"viability z-score without drug":1.35,"Call":"inactive"}
{"Gene":"Ift22 (intraflagellar transport 22)","PubChem SID":"SID152293014","combined z-score class":"no change with or without drug","viability z-score with doxorubicin":0.79,"viability z-score without drug":-0.51,"Call":"inactive"}
{"Gene":"Vmn2r-ps105 (vomeronasal 2, receptor, pseudogene 105)","PubChem SID":"SID152272983","combined z-score class":"no change with or without drug","viability z-score with doxorubicin":-0.22,"viability z-score without drug":-0.51,"Call":"inactive"}
{"Gene":"Slfn3 (schlafen 3)","PubChem SID":"SID152309831","combined z-score class":"low cell count with doxorubicin only","viability z-score with doxorubicin":-2.25,"viability z-score without drug":-1.85,"Call":"active"}
{"Gene":"Ext1 (exostosin glycosyltransferase 1)","PubChem SID":"SID152334925","combined z-score class":"no change with or without drug","viability z-score with doxorubicin":-0.79,"viability z-score without drug":0.84,"Call":"inactive"}
{"Gene":"Defb40 (defensin beta 40)","PubChem SID":"SID152287006","combined z-score class":"no change with or without drug","viability z-score with doxorubicin":0.22,"viability z-score without drug":0.17,"Call":"inactive"}
{"Gene":"Ptgdr (prostaglandin D receptor)","PubChem SID":"SID152275922","combined z-score class":"no change with or without drug","viability z-score with doxorubicin":1.8,"viability z-score without drug":1.35,"Call":"inactive"}
{"Gene":"Acer1 (alkaline ceramidase 1)","PubChem SID":"SID152287697","combined z-score class":"no change with or without drug","viability z-score with doxorubicin":1.57,"viability z-score without drug":1.52,"Call":"inactive"}
